Results are given in words; binding and its absence hold for the method and conditions named. In cells and extracts the contact can be indirect. Here binding means that the protein was enriched with, or labelled near, the bait; the list need not be complete.

Amino acid sequences for entries named in this document (tags omitted).
UniProt Q14764: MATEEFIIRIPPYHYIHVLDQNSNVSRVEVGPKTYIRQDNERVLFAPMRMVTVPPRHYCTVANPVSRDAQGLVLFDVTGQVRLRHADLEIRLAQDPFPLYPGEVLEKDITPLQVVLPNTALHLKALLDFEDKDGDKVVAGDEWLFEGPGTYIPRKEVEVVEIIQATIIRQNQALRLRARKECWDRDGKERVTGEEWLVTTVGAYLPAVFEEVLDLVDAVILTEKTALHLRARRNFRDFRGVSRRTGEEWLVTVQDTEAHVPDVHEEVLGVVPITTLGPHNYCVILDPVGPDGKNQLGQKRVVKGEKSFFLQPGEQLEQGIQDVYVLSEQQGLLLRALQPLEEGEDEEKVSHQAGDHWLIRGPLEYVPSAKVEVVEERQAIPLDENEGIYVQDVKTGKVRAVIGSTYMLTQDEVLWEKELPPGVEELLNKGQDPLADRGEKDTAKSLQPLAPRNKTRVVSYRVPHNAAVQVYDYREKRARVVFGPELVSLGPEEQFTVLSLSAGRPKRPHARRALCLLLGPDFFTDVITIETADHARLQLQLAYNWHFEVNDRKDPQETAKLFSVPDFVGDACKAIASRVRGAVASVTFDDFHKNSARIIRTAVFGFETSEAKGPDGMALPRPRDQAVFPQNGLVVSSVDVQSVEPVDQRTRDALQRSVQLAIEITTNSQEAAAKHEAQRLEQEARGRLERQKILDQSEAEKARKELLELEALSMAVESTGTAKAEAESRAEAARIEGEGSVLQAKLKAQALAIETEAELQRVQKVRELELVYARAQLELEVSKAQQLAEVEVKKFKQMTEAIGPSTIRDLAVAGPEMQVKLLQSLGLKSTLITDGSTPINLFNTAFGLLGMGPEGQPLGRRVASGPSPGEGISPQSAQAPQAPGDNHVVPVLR

The assay concerns the target T1, PTPN18 (endogenous) (human (endogenous in MCF7 and T-47D)) (UniProt Q99952).
T1 sequence: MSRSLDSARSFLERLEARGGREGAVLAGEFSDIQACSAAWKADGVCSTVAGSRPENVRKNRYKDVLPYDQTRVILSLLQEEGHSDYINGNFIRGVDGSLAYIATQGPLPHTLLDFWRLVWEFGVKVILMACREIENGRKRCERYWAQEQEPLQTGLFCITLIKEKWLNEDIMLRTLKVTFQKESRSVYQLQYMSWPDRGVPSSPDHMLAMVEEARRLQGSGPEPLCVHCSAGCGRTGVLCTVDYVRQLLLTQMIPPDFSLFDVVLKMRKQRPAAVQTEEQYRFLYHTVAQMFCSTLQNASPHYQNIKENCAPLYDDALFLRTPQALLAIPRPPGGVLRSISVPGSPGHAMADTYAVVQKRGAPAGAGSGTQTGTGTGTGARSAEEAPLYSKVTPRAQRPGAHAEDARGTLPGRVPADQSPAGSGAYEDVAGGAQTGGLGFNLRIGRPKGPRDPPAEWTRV
The assay is described as follows: affinity purification with mass spectrometry; immunoprecipitation of PTPN18 from MCF7 cells followed by LC-MS/MS.

As for “MVP (endogenous) (from UniProt Q14764 1-893)”, the binding entry is “binds”.
